Data published in patent publication US20140127228A1 (INDIANA UNIVERSITY SCHOOL OF MEDICINE, priority 2012, published 2014).
At least one structure is not confirmed: it was looked up by name or label, or the drawing left a doubt.

Assays:
[1] = patients with prostate cancer bone metastases; cited from earlier work
[2] = tested on: RyR1; experiment: RyR1 oxidation, nitrosylation and calstabin 1 depletion in EDL (immunoprecipitation/immunoblot); assay type: in vivo, mouse; conditions: mice with PC-3 prostate cancer metastatic to bone
Description: In embodiment A is shown that body weight is decreased in nude mice inoculated with PC-3 human prostate cancer cells and that osteolytic lesions are present in the tibia and histology of the femur, as shown in X-ray images. In embodiments B and C are shown decreased skeletal muscle cross-sectional area in tumor-bearing mice determined by Micro-CT as described herein. In embodiments D and E are shown decreased body weight (D) and decreased Grip strength (E) in PC-3 tumor bearing mice. […] In embodiment J is shown that RyR1 is oxidized and there is decreased calstabin 1 in the RyR complex from, skeletal muscle (EDL) from mice with metastatic prostate cancer. […] All immunoblots were developed and quantified with the Odyssey system (LI-COR, Inc., Lincoln, Nebr.) using IR labeled anti-mouse and anti-Rabbit IgG (1:10,000 dilution) secondary antibodies. […] Quantification of immunoblots showing the relative nitrotyrosine/SERCA for each group of EDLs tested. *p<0.01 compared to non-cancer controls as analyzed by ANOVA. […]
Quantification of RyR1 skeletal channel nitrosylation, oxidation and phosphorylation by protein kinase A (PKA) are performed as described (Bellinger et al., 2009; Bellinger et al., 2008b).
Quantification of depletion of the channel stabilizing subunit calstabin 1 (FKBP12) from skeletal RyR1 by immunoprecipitation techniques are performed as described (Marx et al., 2000). […]

SMILES: O=P(O)(O)C(O)(Cn1ccnc1)P(=O)(O)O [zoledronic acid]
- skeletal morbidity [1]: reduce skeletal morbidity
- oxidation/nitrosylation/calstabin 1 depletion of skeletal muscle RyR1 [2]: did not prevent
